Common to all, as to experiment: fluorescence polarization
(In general: Polarisation of emitted light reports the rotation of a fluorescent probe.)

Sequences of proteins named here, by UniProt entry; tags and fusion partners are left off. Residues count along the entry.
UniProt Q6P6C2, 66-292: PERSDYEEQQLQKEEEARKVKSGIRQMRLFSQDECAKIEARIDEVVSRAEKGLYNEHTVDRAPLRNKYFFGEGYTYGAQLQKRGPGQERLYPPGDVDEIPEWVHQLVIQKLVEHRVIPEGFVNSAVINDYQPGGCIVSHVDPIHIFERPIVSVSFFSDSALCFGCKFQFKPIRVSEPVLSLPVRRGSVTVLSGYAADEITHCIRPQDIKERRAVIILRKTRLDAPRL
UniProt P26358, 351-1600: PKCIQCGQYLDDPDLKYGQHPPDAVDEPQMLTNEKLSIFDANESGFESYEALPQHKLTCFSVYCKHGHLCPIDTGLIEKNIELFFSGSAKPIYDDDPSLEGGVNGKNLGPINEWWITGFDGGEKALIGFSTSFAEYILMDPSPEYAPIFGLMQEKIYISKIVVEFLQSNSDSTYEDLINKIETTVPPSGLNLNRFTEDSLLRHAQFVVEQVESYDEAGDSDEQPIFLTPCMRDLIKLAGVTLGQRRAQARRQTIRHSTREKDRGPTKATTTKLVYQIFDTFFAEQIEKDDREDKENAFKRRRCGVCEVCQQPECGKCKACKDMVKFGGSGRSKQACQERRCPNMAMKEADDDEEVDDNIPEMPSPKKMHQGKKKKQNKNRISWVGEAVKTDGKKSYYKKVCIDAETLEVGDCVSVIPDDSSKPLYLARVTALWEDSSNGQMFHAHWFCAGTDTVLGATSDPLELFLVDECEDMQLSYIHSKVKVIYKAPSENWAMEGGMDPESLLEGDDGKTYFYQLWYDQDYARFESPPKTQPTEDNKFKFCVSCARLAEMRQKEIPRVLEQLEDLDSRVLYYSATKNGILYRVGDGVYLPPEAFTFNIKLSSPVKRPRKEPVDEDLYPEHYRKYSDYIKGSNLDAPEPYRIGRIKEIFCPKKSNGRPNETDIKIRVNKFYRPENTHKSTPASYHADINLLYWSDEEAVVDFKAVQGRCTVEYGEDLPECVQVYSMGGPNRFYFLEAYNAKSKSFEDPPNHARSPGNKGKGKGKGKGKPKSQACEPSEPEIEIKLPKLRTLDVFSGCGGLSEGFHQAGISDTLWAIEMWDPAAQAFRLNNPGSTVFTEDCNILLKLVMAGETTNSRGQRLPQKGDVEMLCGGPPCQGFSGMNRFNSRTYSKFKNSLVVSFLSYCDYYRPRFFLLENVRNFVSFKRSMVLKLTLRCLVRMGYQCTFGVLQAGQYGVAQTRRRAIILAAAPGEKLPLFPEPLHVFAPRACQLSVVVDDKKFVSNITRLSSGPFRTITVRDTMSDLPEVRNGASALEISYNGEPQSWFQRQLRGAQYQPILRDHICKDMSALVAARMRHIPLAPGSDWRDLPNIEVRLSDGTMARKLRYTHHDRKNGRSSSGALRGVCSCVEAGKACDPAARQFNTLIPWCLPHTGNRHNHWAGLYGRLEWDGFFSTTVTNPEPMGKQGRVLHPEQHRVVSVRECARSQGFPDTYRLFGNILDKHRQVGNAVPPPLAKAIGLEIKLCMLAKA

One data set relates to METTL3 + METTL14. Conditions: FP, 384-well, methyl readers at final NaCl 400 mM (DNMT1 assay), 300 mM (TET2), 250 mM (METTL3/14, ALKBH5), 10-15 min, DNMT1 and METTL3/14 binding in 20 mM HEPES pH 7.4, recombinant protein, label: 5'-FAM.
The target in the next data set is ALKBH5 catalytic domain (UniProt Q6P6C2). The settings on record: high-NaCl buffer, very weak signal, FP, 384-well, methyl readers at final NaCl 400 mM (DNMT1 assay), 300 mM (TET2), 250 mM (METTL3/14, ALKBH5), 10-15 min, DNMT1 and METTL3/14 binding in 20 mM HEPES pH 7.4, recombinant protein, residues 66-292, protein details: pET28a, label: 5'-FAM.
The next data set has as its target T1, MBD1 (1-105) (UniProt Q9UIS9).
T1 sequence (looked up): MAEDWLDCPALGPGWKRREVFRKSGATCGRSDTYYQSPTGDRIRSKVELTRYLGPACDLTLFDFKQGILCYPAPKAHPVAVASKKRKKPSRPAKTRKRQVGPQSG
The settings on record: preference for methylated DNA at 150 mM NaCl or above, judged insufficient for assay; 5mC at position 3 of top strand and position 9 of bottom strand; FP, 384-well; methyl readers at final NaCl 400 mM (DNMT1 assay), 300 mM (TET2), 250 mM (METTL3/14, ALKBH5), 10-15 min; DNMT1 and METTL3/14 binding in 20 mM HEPES pH 7.4; recombinant protein; residues 1-105; protein details: untagged; label: 5'-FAM top strand.

The target in a further data set is DNMT1 (351-1600) (human) (UniProt P26358). Conditions: FP, 384-well, methyl readers at final NaCl 400 mM (DNMT1 assay), 300 mM (TET2), 250 mM (METTL3/14, ALKBH5), 10-15 min, DNMT1 and METTL3/14 binding in 20 mM HEPES pH 7.4, recombinant protein, residues 351-1600, protein details: N-terminal 6xHis, TEV site, label: 5'-FAM top ….

For some of these results: No signal at the amounts used counts as a negative. At least one verdict was read from the data and is not stated in words by the source. The exact form of at least one protein or probe is not confirmed. For some of these results: Weaker means in comparison with the reference protein, sequence or condition of that experiment. For some of these results: Tags and fusion partners may be left off the protein sequences shown.

Take GAACCGGACUGUCUUA [m6A-modified RNA]: the binding result in the data set with METTL3 + METTL14 (0 mM NaCl, m6A at position 8) is “binds”; in the data set with METTL3 + METTL14 (150 mM NaCl or higher, virtually no binding, m6A at position 8), “no binding”; with ALKBH5 catalytic domain (m6A at position 8), “binds more weakly”.
On to GAACCGGACUGUCUUA [unmodified RNA], for which the binding result in the data set with METTL3 + METTL14 (0 mM NaCl) is “binds”; with METTL3 + METTL14 (150 mM NaCl or higher, virtually no binding), “no binding”; with ALKBH5 catalytic domain it was “binds more weakly”.
In the case of “TACGACCAGGAT (double strand) [fully-methylated DNA [M/M]]”, the binding result in the data set with MBD1 (1-105) is reported as “binds”; with DNMT1 (351-1600) (human) (0 mM NaCl, 5mC at position 3 of top strand and position 9 of bottom strand) it was “binds”; with DNMT1 (351-1600) (human) (150 mM NaCl, virtually no binding, 5mC at position 3 of top strand and position 9 of bottom strand), “no binding”; in the data set with DNMT1 (351-1600) (human) (400 mM NaCl, virtually no binding, 5mC at position 3 of top strand and position 9 of bottom strand), “no binding”.
With “TACGACCAGGAT (double strand) [hemi-methylated DNA [M/C]]”, the binding result in the data set with DNMT1 (351-1600) (human) (0 mM NaCl, 5mC at position 3 of top strand) is listed as “binds”; in the data set with DNMT1 (351-1600) (human) (150 mM NaCl, virtually no binding, 5mC at position 3 of top strand) it was “no binding”; in the data set with DNMT1 (351-1600) (human) (400 mM NaCl, virtually no binding, 5mC at position 3 of top strand) it was “no binding”.
